Among the data in PubChem BioAssay AID328 (DTP/NCI, 2004) are survivor count and T/C values, retold here.

The subject of the experiment is BDF1 mice, P388 leukemia ip, median survival T/C. Briefly: NCI In Vivo Anticancer Drug Screen. Data for tumor model P388 Leukemia (intraperitoneal) in B6D2F1 (BDF1) mice. Particulars: T/C endpoint: median survival time, higher T/C = longer survival. The method in brief:
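Reported as T/C, where T is the survival measurement in dosed animals and C the same measurement in vehicle controls.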

[1] abbreviates: dose: 200.0 mg/kg/injection, schedule: Q01DX009 (ip), vehicle: Klucel (hydroxypropylcellulose) (HPC).
[2] abbreviates: dose: 200.0 mg/kg/injection, schedule: Q04DX003 (ip), vehicle: Klucel (hydroxypropylcellulose) (HPC).
Where [3] appears, read: dose: 300.0 mg/kg/injection, schedule: Q01DX009 (ip), vehicle: Klucel (hydroxypropylcellulose) (HPC).
The mark [4] stands for this setting: dose: 50.0 mg/kg/injection, schedule: Q01DX009 (ip), vehicle: saline.
Setting [5] is: dose: 100.0 mg/kg/injection, schedule: Q04DX003 (ip), vehicle: saline.
[6] abbreviates: dose: 200.0 mg/kg/injection, schedule: Q04DX003 (ip), vehicle: saline.
Where [7] appears, read: dose: 400.0 mg/kg/injection, schedule: Q04DX003 (ip), vehicle: saline.
Setting [8] is: dose: 200.0 mg/kg/injection, schedule: Q01DX009 (ip), vehicle: saline with Tween-80.
Setting [9] is: dose: 15.0 mg/kg/injection, schedule: Q01DX009 (ip), vehicle: saline with Tween-80.

The list shows only some results of the screen, not a fair sample: it gathers tests that were run many times, whatever their T/C, doses with no T/C, and many T/C values between a quarter and a half above the control. Other doses and runs of a compound stand elsewhere. T/C gives the treated animals as a percentage of the vehicle group. Some entries give survivors of the animals treated and no T/C: the source files T/C as zero there, which appears to mark a toxic dose or a test without result, not a measured value. Some doses without a T/C left all or most animals alive at the check, yet need not have been tolerated: the source hardly ever lists a survival T/C far under the control, and the zero likely stands for such cases as well. Survivors were counted at the toxicity check, usually on the fifth day, unless a day is given; later deaths do not show. Schedule codes are those of the source, read here as Q, the interval in days (D) or hours (H), X, the number of doses. Some doses were run more than once; the values are given in rising order. Where survival is the endpoint, this PubChem deposit counts one and a half times the control or more as active, and values a quarter to a half above the control carry no call in these data; other NCI protocols may use other cut-offs. Some T/C values are followed by the survivors on the day toxicity was checked, most often the fifth; without a count, all were alive then. Residues, ends and D or L forms follow the SMILES beside them. *: point of attachment. Boc = CC(C)(C)OC(=O)*; OBn = c1ccc(CO*)cc1

`Clc1c(Cl)c(CBr)c(Cl)c(CBr)c1Cl`: the survivor count runs as follows: (dose: 60.0 mg/kg/injection, schedule: Q01DX009 (ip), vehicle: Klucel (hydroxypropylcellulose) (HPC)) 4 of 6; (dose: 88.0 mg/kg/injection, schedule: Q01DX009 (ip), vehicle: Klucel (hydroxypropylcellulose) (HPC)) 6 of 6; (dose: 132.0 mg/kg/injection, schedule: Q01DX009 (ip), vehicle: Klucel (hydroxypropylcellulose) (HPC)) 6 of 6; (dose: 132.0 mg/kg/injection, schedule: Q04DX003 (ip), vehicle: Klucel (hydroxypropylcellulose) (HPC)) 5 of 6; under setting [1], 1 of 6; under setting [2], 2 of 6 and 6 of 6. Moreover, the survivor count reads like this: under setting [3], 0 of 6; (dose: 300.0 mg/kg/injection, schedule: Q04DX003 (ip), vehicle: Klucel (hydroxypropylcellulose) (HPC)) 2 of 6 and 4 of 6. Further, the T/C (dose: 88.0 mg/kg/injection, schedule: Q04DX003 (ip), vehicle: saline sonified) is 133 % of control; the T/C (dose: 200.0 mg/kg/injection, schedule: Q01DX009 (ip), vehicle: saline sonified) is 127 % of control; the T/C under setting [2] was 125 % of control; the T/C (dose: 300.0 mg/kg/injection, schedule: Q04DX003 (ip), vehicle: saline sonified) is 144 % of control.

As to `C=CCC(C)/C(=N\[N+](C)(C)C)c1ccccc1` (centres undefined), the survivor count is on record as 0 of 6 (dose: 100.0 mg/kg/injection, schedule: Q01DX001 (ip), vehicle: saline); 0 of 6 (dose: 200.0 mg/kg/injection, schedule: Q01DX001 (ip), vehicle: saline); 0 of 6 (dose: 400.0 mg/kg/injection, schedule: Q01DX001 (ip), vehicle: saline).

`CSC(=O)OCC1=CC2OC(=O)C3=COC(OC4OC(CO)C(O)C(O)C4O)C1C32` (centres undefined): where the note is “dose: 8.0 mg/kg/injection, schedule: Q01DX009 (ip), vehicle: saline with Tween-80”, the T/C was 129 % of control.

Take `CCS/C(N)=N\N`: the survivor count under setting [4] was 3 of 5 and the survivor count under setting [5] is 3 of 6.

Consider `CC(C)(C)OC(=O)NCC(=O)NCC(=O)NCC(=O)OCc1ccccc1` (Boc-Gly-Gly-Gly-OBn), for which, under “dose: 200.0 mg/kg/injection, schedule: Q01DX005 (ip), vehicle: saline with Tween-80”, the survivor count is 4 of 5.

In the case of `COc1ccc(C(=O)c2ccccc2)cc1OC`, under setting [2], the survivor count was 6 of 6.

`CCOC(=O)c1[nH]cnc1/N=N/N(C)C`: the survivor count (dose: 40.0 mg/kg/injection, schedule: Q01DX009 (ip), vehicle: saline with Tween-80) is on record as 5 of 6.

Regarding `CC1CN1P(=O)(N1CC1C)N1CC1C` (centres undefined), the T/C (dose: 33.0 mg/kg/injection, schedule: Q04DX003 (ip), vehicle: saline) is 131 % of control. The survivor count is, setting by setting: (dose: 100.0 mg/kg/injection, schedule: Q01DX009 (ip), vehicle: saline) 2 of 6; under setting [6], 3 of 6; under setting [7], 0 of 6.

Take `O=[N+]([O-])c1ccc(Cl)c2nonc12`: the survivor count is recorded as 3 of 7 (dose: 30.0 mg/kg/injection, schedule: Q01DX009 (ip), vehicle: saline with Tween-80) and 0 of 7 (dose: 60.0 mg/kg/injection, schedule: Q01DX009 (ip), vehicle: saline with Tween-80).

As to `O=C(/C=C/c1cccc(Cl)c1)c1ccccc1`, the T/C is, setting by setting: (dose: 150.0 mg/kg/injection, schedule: Q01DX009 (ip), vehicle: Klucel (hydroxypropylcellulose) (HPC)) 126 % of control; under setting [1], 126 % of control. Moreover, the survivor count under setting [3] is listed as 5 of 6.

Consider `Nc1nc(N)c2cc(S(=O)(=O)c3ccccc3)ccc2n1`, for which the T/C was 148 % of control (dose: 100.0 mg/kg/injection, schedule: Q01DX009 (ip), vehicle: saline with Tween-80) and 148 % of control under setting [8].

Regarding `O=C(Nc1nc(Cl)nc(Cl)n1)N1CCOCC1`, the T/C (dose: 12.5 mg/kg/injection, schedule: Q01DX009 (ip), vehicle: saline with Tween-80) was 131 % of control. Moreover, the survivor count is reported as 6 of 6 (dose: 25.0 mg/kg/injection, schedule: Q01DX009 (ip), vehicle: saline with Tween-80) and 1 of 6 (dose: 50.0 mg/kg/injection, schedule: Q04DX003 (ip), vehicle: saline with Tween-80).

As to `Nc1nc(N)c2cc(Sc3ccc4ccccc4c3)ccc2n1`, the T/C under setting [8] is 148 % of control.

Turning to `O=C(O)CP(=O)(O)O`, the T/C is, setting by setting: (dose: 250.0 mg/kg/injection, schedule: Q04DX024 (ip), vehicle: saline) 128 % of control; (dose: 500.0 mg/kg/injection, schedule: Q03HX024 (ip), vehicle: saline) 129 % of control; (dose: 500.0 mg/kg/injection, schedule: Q04DX024 (ip), vehicle: saline) 146 % of control; (dose: 750.0 mg/kg/injection, schedule: Q03HX024 (ip), vehicle: saline) 144 % of control [9 of 10 alive].

Take `COc1ccc(OCC(O)CN2CCN(c3ccc(Cl)cc3)CC2)cc1` (centres undefined): the survivor count was 6 of 6 (dose: 50.0 mg/kg/injection, schedule: Q01DX009 (ip), vehicle: Klucel (hydroxypropylcellulose) (HPC)); 6 of 6 (dose: 100.0 mg/kg/injection, schedule: Q01DX009 (ip), vehicle: Klucel (hydroxypropylcellulose) (HPC)); 6 of 6 under setting [1].

`Cc1cc(=O)[nH]c(N/N=C/C(C)C)n1`: the survivor count is listed as 6 of 6 under setting [1] and 0 of 6 (dose: 400.0 mg/kg/injection, schedule: Q01DX009 (ip), vehicle: Klucel (hydroxypropylcellulose) (HPC)).

With `NC1C=CC(CCC(N)C(=O)O)C=C1` (centres undefined), under setting [4], the T/C is 126 % of control.

Turning to `Cc1ccccc1N=C(N)N=C(N)N`, the survivor count (dose: 200.0 mg/kg/injection, schedule: Q01DX009 (ip), vehicle: saline) was 0 of 6.

Take `O=C([O][Hg][CH2]C1COC([CH2][Hg][O]C(=O)c2ccccc2)CO1)c1ccccc1` (centres undefined): the survivor count reads like this: (dose: 200.0 mg/kg/injection, schedule: Q04DX003 (ip), vehicle: saline with Tween-80) 2 of 6; (dose: 400.0 mg/kg/injection, schedule: Q04DX003 (ip), vehicle: saline with Tween-80) 0 of 6.

As to `CC1=CC23C(COC(=O)C24CO4)C(C(=O)O)=CC3C1C` (centres undefined) (tested in a mixture with another compound), the survivor count is 3 of 3 (dose: 0.13 mg/kg/injection, schedule: Q01DX009 (ip), vehicle: Klucel (hydroxypropylcellulose) (HPC)) and 3 of 3 (dose: 0.5 mg/kg/injection, schedule: Q01DX009 (ip), vehicle: Klucel (hydroxypropylcellulose) (HPC)).

For `O=[N+]([O-])c1cc([N+](=O)[O-])c(Br)cc1Cl`, where the note is “dose: 40.0 mg/kg/injection, schedule: Q01DX009 (ip), vehicle: Klucel (hydroxypropylcellulose) (HPC)”, the survivor count is recorded as 0 of 6.

On to `O=C(Nc1ccc(C2=NCCCN2)cc1)c1ccc(C(=O)Nc2ccc(C3=NCCCN3)cc2)nc1`, for which the T/C (dose: 8.0 mg/kg/injection, schedule: Q01DX009 (ip), vehicle: saline) was 146 % of control; the T/C (dose: 10.0 mg/kg/injection, schedule: Q01DX009 (ip), vehicle: saline with Tween-80) is 137 % of control [5 of 6 alive]; the T/C (dose: 12.5 mg/kg/injection, schedule: Q01DX009 (ip), vehicle: saline) is 134 % of control; the T/C under setting [9] is 136 % of control [5 of 6 alive]; the T/C (dose: 25.0 mg/kg/injection, schedule: Q04DX003 (ip), vehicle: saline) was 126 and 131 % of control [5 of 6 alive]. Besides, the survivor count runs as follows: under setting [9], 2 of 6; (dose: 37.5 mg/kg/injection, schedule: Q04DX003 (ip), vehicle: saline) 4 of 6; under setting [4], 1 of 6; (dose: 50.0 mg/kg/injection, schedule: Q04DX003 (ip), vehicle: saline) 0 of 6; under setting [5], 0 of 6; under setting [6], 0 of 6. Further, the survivor count under setting [7] is 0 of 6.
